Publication PMC8257755
No constants are given. Whether binding was seen depends on the method and setting. Some binding calls cover weakened binding; strength is not graded here.

Sequences of proteins named here, by UniProt entry; tags and fusion partners are left off. A change or cut given only in a name is not applied to a line headed by its entry. A line that says so, or that is headed by a name, gives the form on record, which may keep a tag or linker. Residues count along the entry.
UniProt Q8N2Q7, residues 46-863: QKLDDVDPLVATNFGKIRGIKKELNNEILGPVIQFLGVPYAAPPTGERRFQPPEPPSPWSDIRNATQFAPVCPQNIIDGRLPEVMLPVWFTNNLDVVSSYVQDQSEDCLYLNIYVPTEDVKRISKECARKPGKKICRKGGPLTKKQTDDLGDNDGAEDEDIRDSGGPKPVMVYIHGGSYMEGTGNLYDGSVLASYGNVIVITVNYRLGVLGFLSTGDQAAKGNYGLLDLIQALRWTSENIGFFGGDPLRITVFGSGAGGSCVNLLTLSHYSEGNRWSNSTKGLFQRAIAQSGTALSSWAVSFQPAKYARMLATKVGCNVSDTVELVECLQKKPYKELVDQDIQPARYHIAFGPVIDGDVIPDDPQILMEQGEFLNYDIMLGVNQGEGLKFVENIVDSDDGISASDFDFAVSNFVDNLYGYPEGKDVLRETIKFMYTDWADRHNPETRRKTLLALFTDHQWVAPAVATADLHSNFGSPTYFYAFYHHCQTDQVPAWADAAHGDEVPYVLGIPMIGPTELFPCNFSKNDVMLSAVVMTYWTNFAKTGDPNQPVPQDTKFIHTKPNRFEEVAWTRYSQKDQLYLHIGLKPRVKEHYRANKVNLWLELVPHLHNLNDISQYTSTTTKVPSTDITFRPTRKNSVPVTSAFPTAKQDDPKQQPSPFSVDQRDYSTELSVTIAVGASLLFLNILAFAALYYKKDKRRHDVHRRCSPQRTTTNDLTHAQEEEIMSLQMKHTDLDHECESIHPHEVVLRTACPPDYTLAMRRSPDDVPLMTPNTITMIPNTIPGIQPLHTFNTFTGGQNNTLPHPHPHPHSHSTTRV
ErbB4-K751M (Q15303, form named): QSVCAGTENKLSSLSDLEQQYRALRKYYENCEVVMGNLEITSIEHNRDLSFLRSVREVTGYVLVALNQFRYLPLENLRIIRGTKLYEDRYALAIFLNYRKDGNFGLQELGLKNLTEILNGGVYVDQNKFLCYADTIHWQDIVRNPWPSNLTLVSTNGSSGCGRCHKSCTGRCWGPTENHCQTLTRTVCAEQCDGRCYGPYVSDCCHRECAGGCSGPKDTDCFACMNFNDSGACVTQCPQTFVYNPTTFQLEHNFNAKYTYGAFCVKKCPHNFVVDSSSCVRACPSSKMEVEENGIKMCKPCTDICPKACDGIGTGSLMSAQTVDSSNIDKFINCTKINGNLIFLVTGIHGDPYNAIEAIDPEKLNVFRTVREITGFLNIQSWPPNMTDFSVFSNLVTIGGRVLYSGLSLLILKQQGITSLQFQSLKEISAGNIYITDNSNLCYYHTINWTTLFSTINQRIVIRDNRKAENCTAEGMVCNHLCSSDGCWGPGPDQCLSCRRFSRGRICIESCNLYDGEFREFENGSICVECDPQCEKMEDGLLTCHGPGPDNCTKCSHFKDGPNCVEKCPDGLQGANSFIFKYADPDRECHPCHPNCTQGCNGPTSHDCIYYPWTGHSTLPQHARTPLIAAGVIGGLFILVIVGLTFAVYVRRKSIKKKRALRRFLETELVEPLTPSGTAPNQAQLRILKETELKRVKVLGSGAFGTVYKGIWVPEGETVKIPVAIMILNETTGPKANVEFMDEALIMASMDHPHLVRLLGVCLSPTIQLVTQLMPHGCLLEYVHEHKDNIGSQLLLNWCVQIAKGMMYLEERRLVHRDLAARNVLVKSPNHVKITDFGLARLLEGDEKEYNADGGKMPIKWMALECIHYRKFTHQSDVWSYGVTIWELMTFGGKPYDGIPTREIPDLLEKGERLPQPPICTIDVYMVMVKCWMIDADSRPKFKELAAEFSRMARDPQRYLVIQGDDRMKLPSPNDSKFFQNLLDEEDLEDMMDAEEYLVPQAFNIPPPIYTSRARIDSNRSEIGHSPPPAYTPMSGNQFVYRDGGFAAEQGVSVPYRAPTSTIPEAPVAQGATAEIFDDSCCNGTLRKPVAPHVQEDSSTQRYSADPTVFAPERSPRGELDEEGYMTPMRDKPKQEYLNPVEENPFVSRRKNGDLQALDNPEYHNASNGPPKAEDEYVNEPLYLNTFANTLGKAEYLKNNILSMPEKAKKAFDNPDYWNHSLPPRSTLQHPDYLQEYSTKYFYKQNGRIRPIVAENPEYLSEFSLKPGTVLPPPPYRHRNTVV
UniProt P58400, residues 51-472: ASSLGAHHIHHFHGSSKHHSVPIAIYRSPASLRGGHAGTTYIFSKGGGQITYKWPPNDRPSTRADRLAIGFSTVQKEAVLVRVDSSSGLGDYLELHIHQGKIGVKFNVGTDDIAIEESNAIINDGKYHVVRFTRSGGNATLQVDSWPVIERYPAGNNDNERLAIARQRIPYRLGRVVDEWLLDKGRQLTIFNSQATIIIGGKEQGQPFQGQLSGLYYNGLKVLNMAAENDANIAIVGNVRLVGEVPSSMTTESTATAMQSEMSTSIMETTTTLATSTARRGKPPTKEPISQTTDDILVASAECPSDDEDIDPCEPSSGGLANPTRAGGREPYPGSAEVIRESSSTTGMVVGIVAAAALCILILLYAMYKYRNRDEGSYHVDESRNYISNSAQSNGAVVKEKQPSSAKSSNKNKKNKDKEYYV

Columns and labels:
Slitrk3 = target: T1, Slitrk3 (UniProt O94933); experiment: cell aggregation assay; HEK293T cells transfected separately (DsRed with one protein, EGFP with the other), detached with 1 mM EDTA in PBS, mixed, gentle agitation at room temperature in DMEM with 10% FBS, 50 mM HEPES-NaOH pH 7.4, 10 mM MgCl2, 10 mM CaCl2; aggregation assessed at 90 min
T1 sequence: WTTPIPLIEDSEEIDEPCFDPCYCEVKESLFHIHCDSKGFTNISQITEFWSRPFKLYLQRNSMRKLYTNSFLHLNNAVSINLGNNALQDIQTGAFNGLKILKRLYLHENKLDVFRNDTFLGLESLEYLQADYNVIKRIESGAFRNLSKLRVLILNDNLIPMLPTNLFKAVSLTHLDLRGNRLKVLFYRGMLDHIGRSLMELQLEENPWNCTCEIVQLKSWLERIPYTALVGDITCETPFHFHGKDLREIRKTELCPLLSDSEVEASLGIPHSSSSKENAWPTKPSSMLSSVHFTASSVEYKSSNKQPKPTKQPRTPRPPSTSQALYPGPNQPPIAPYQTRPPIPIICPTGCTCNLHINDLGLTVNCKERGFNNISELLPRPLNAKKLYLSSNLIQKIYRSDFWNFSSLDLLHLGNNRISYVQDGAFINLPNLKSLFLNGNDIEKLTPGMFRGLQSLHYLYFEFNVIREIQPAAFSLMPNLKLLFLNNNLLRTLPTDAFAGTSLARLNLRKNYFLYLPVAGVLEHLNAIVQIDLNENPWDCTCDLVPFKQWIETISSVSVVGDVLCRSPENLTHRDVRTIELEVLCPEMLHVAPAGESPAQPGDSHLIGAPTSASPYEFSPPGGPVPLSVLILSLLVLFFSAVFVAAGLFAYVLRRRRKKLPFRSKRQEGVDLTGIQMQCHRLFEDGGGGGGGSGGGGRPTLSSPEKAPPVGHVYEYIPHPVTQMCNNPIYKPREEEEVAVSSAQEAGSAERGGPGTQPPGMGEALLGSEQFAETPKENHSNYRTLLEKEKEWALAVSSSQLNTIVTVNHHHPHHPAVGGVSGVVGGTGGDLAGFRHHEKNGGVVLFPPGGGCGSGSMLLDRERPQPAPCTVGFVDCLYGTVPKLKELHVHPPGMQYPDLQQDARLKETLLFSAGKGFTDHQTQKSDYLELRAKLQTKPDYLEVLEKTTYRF

NLGN1 = NLGN1 (UniProt Q8N2Q7); experiment: as above

binding (Slitrk3)	binding (NLGN1)	Substance
binds		ErbB4-K751M (from UniProt Q15303 26-1308) (receptor)
	binds	NRXN1β (from UniProt P58400 51-472)
